Data as given in US8906909B2 (Curis, Inc., priority 2009, dated 2014).

Key:
Format in all cases: cell-based
[1] = test system: H460 cells; assay: Cell proliferation assay Method B, H460; details: Homo sapiens, NCI-H460, NSCLC, 72 hours, read-out: antiproliferative activity IC50, H460
Experimental: (§1) Cancer cell lines were plated at 5,000 to 10,000 per well in 96-well flat bottomed plates with various concentration of compounds. The cells were incubated with compounds for 72 hours in the presence of 0.5% of fetal bovine serum. Growth inhibition was accessed by adenosine triphosphate (ATP) content assay using Promega CellTiter-Glo kit. Promega CellTiter-Glo kit is an ATP monitoring system based on firefly luciferase. Briefly, 16 μl of mammalian cell lysis and substrate solution was added to 84 μl of culture medium per well to lyse the cells and stabilize the ATP. The mixture was shaken and incubated for 30 minutes and subsequently the luminescence was measured.

[2] = test system: HCC1500 cells; assay: Cell proliferation assay Method B, HCC1500; details: Breast, 72 hours, read-out: antiproliferative activity IC50, HCC1500
Experimental: as §1

[3] = test system: Raji cells; assay: Cell proliferation assay Method B, Raji; details: Homo sapiens, NHL, 72 hours, read-out: antiproliferative activity IC50, Raji
Experimental: as §1

[4] = test system: MDA-MB-453 cells; assay: Cell proliferation assay Method B, MDA-MB-453; details: Homo sapiens, Breast, 72 hours, read-out: antiproliferative activity IC50, MDA-MB-453
Experimental: as §1

[5] = test system: MCF-7 cells; assay: Cell proliferation assay Method B, MCF-7; details: Homo sapiens, MCF7, Breast, 72 hours, read-out: antiproliferative activity IC50, MCF-7
Experimental: as §1

[6] = test system: ZR-75-1 cells; assay: Cell proliferation assay Method B, ZR-75-1; details: Homo sapiens, Breast, 72 hours, read-out: antiproliferative activity IC50, ZR-75-1
Experimental: as §1

[7] = test system: HL-60 cells; assay: Cell proliferation assay Method B, HL-60; details: Homo sapiens, AML, 72 hours, read-out: antiproliferative activity IC50, HL-60
Experimental: as §1

[8] = test system: THP-1 cells; assay: Cell proliferation assay Method B, THP-1; details: Homo sapiens, AML, 72 hours, read-out: antiproliferative activity IC50, THP-1
Experimental: as §1

[9] = test system: MV-4-11 cells; assay: Cell proliferation assay Method B, MV-4-11; details: Homo sapiens, MV4-11, AML, 72 hours, read-out: antiproliferative activity IC50, MV-4-11
Experimental: as §1

[10] = test system: A375 cells; assay: Cell proliferation assay Method B, A375; details: Homo sapiens, A-375, Melanoma, 72 hours, read-out: antiproliferative activity IC50, A375
Experimental: as §1

[11] = test system: HCC1806 cells; assay: Cell proliferation assay Method B, HCC1806; details: Homo sapiens, Breast, 72 hours, read-out: antiproliferative activity IC50, HCC1806
Experimental: as §1

[12] = test system: HCC1937 cells; assay: Cell proliferation assay Method B, HCC1937; details: Homo sapiens, Breast, 72 hours, read-out: antiproliferative activity IC50, HCC1937
Experimental: as §1

[13] = test system: SUP-B15 cells; assay: Cell proliferation assay Method B, SUP-B15; details: Homo sapiens, ALL, 72 hours, read-out: antiproliferative activity IC50, SUP-B15
Experimental: as §1

[14] = test system: MDA-MB-468 cells; assay: Cell proliferation assay Method B, MDA-MB-468; details: Homo sapiens, Breast, 72 hours, read-out: antiproliferative activity IC50, MDA-MB-468
Experimental: as §1

[15] = test system: L1210 cells; assay: Cell proliferation assay Method B, L1210; details: Mouse LL, 72 hours, read-out: antiproliferative activity IC50, L1210
Experimental: as §1

[16] = test system: K562 cells; assay: Cell proliferation assay Method B, K562; details: Homo sapiens, CML, 72 hours, read-out: antiproliferative activity IC50, K562
Experimental: as §1

[17] = test system: MEG-01 cells; assay: Cell proliferation assay Method B, MEG-01; details: Homo sapiens, CML, 72 hours, read-out: antiproliferative activity IC50, MEG-01
Experimental: as §1

[18] = test system: U937 cells; assay: Cell proliferation assay Method B, U937; details: Homo sapiens, U-937, AML, 72 hours, read-out: antiproliferative activity IC50, U937
Experimental: as §1

[19] = test system: RPMI-8226 cells; assay: Cell proliferation assay Method B, RPMI-8226; details: Homo sapiens, Multiple Myeloma, 72 hours, read-out: antiproliferative activity IC50, RPMI-8226
Experimental: as §1

[20] = test system: T47D cells; assay: Cell proliferation assay Method B, T47D; details: Homo sapiens, Breast, 72 hours, read-out: antiproliferative activity IC50, T47D
Experimental: as §1

[21] = test system: Ca127 cells; assay: Cell proliferation assay Method B, Ca127; details: HNC, 72 hours, read-out: antiproliferative activity IC50, Ca127
Experimental: as §1

[22] = test system: H1975 cells; assay: Cell proliferation assay Method B, H1975; details: Homo sapiens, NCI-H1975, NSCLC, 72 hours, read-out: antiproliferative activity IC50, H1975
Experimental: as §1

[23] = test system: P388 D1 cells; assay: Cell proliferation assay Method B, P388 D1; details: P388D1, Mouse Lymphoma, 72 hours, read-out: antiproliferative activity IC50, P388 D1
Experimental: as §1

[24] = test system: BT474 cells; assay: Cell proliferation assay Method B, BT474; details: Homo sapiens, BT-474, Breast, 72 hours, read-out: antiproliferative activity IC50, BT474
Experimental: as §1

[25] = test system: Sk-Mel-28 cells; assay: Cell proliferation assay Method B, Sk-Mel-28; details: Homo sapiens, Melanoma, 72 hours, read-out: antiproliferative activity IC50, Sk-Mel-28
Experimental: as §1

[26] = test system: MDA-MB-436 cells; assay: Cell proliferation assay Method B, MDA-MB-436; details: Homo sapiens, Breast, 72 hours, read-out: antiproliferative activity IC50, MDA-MB-436
Experimental: as §1

[27] = test system: SKBr3 cells; assay: Cell proliferation assay Method B, SKBr3; details: Homo sapiens, SK-BR-3, Breast, 72 hours, read-out: antiproliferative activity IC50, SKBr3
Experimental: as §1

[28] = test system: MOLT-4 cells; assay: Cell proliferation assay Method B, MOLT-4; details: Homo sapiens, ALL, 72 hours, read-out: antiproliferative activity IC50, MOLT-4
Experimental: as §1

[29] = test system: MDA-MB-231 cells; assay: Cell proliferation assay Method B, MDA-MB-231; details: Homo sapiens, Breast, 72 hours, read-out: antiproliferative activity IC50, MDA-MB-231 (second listing, r32)
Experimental: as §1

[30] = test system: ARH77 cells; assay: Cell proliferation assay Method B, ARH77; details: Homo sapiens, ARH-77, Multiple Myeloma, 72 hours, read-out: antiproliferative activity IC50, ARH77
Experimental: as §1

[31] = test system: MDA-MB-361 cells; assay: Cell proliferation assay Method B, MDA-MB-361; details: Homo sapiens, Breast, 72 hours, read-out: antiproliferative activity IC50, MDA-MB-361
Experimental: as §1

[32] = test system: H1993 cells; assay: Cell proliferation assay Method B, H1993; details: Homo sapiens, NCI-H1993, NSCLC, 72 hours, read-out: antiproliferative activity IC50, H1993
Experimental: as §1

[33] = test system: UACC-893 cells; assay: Cell proliferation assay Method B, UACC-893; details: Homo sapiens, Breast, 72 hours, read-out: antiproliferative activity IC50, UACC-893
Experimental: as §1

[34] = test system: Daudi cells; assay: Cell proliferation assay Method B, Daudi; details: Homo sapiens, NHL, 72 hours, read-out: antiproliferative activity IC50, Daudi
Experimental: as §1

[35] = test system: U87MG cells; assay: Cell proliferation assay Method B, U87MG; details: Homo sapiens, U-87 MG, Glioblastoma, 72 hours, read-out: antiproliferative activity IC50, U87MG
Experimental: as §1

[36] = test system: Pfeiffer cells; assay: Cell proliferation assay Method B, Pfeiffer; details: Homo sapiens, NHL, 72 hours, read-out: antiproliferative activity IC50, Pfeiffer
Experimental: as §1

## O=C(CCCCCCC(=O)Nc1ccccc1)NO [SAHA, Suberoylanilide hydroxamic acid, reference compound]
[1]
  IC50: > 10000 nM
[2]
  IC50: 1000 to 10000 nM
[3]
  IC50: 100 to 1000 nM
[4]
  IC50: 100 to 1000 nM
[5]
  IC50: 1000 to 10000 nM
[6]
  IC50: 1000 to 10000 nM
[7]
  IC50: 100 to 1000 nM
[8]
  IC50: > 10000 nM
[9]
  IC50: 100 to 1000 nM
[10]
  IC50: 1000 to 10000 nM
[11]
  IC50: 1000 to 10000 nM
[12]
  IC50: 1000 to 10000 nM
[13]
  IC50: 100 to 1000 nM
[14]
  IC50: 100 to 1000 nM
[15]
  IC50: > 10000 nM
[16]
  IC50: > 10000 nM
[17]
  IC50: > 10000 nM
[18]
  IC50: 100 to 1000 nM
[19]
  IC50: 100 to 1000 nM
[20]
  IC50: 1000 to 10000 nM
[21]
  IC50: 1000 to 10000 nM
[22]
  IC50: 1000 to 10000 nM
[23]
  IC50: > 10000 nM
[24]
  IC50: 1000 to 10000 nM
[25]
  IC50: 1000 to 10000 nM
[26]
  IC50: 1000 to 10000 nM
[27]
  IC50: 1000 to 10000 nM
[28]
  IC50: 100 to 1000 nM
[29]
  IC50: 1000 to 10000 nM
[30]
  IC50: 1000 to 10000 nM
[31]
  IC50: 1000 to 10000 nM
[32]
  IC50: 1000 to 10000 nM
[33]
  IC50: 1000 to 10000 nM
[34]
  IC50: > 10000 nM
[35]
  IC50: 1000 to 10000 nM
[36]
  IC50: > 10000 nM
